# Experimental data reported in PubChem BioAssay AID1508600 (Functional Genomics Laboratory (NCATS/FGL), 2020).
# Screen size: about 53,000 sequences; about 3,700 (7%) were called active.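 How the source made its calls: active means gene knockdowns whose robust z-score for IL-1 alpha signal is at least 2 or at most -2, so actives lie on both sides; inactive means the rest.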 The list shows a part of the results.
# Experiment: Components of the Cytosolic LPS Sensing Pathway: Gene Identification via Genome-wide siRNA Screen;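 further: robust z of the log signal after scaling to non-targeting control siRNA wells of the plate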
# Settings: RAW264.7 macrophages, IL-1a HTRF, actives lie on both sides, screened at 100 nM (by protocol), cells primed 5 h with Pam3CSK4 first
# Outline: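 IL-1a HTRF of supernatants after 24 hour LipidA transfection of Pam3CSK4-primed (5 hours) RAW264.7 cells, 48h post-siRNA transfection (100 nM). Scores: percent of plate negative-control median, then log-based robust z-score.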
row,Sequence,z-score
1,GCAGCCAAGUGGGUAACUUTT against Nicn1,inactive: 0.474
2,CCAGCAAAUAUCCUAGUAATT against Cdk19,inactive: 0.111
3,GGCUCACUCUCCAUUCUACTT against Asb6,inactive: -0.902
4,CAAUGACAGCAGAUGACGUTT against Crabp2,inactive: 0.0834
5,CCGGAUUCGAGAGGUGAUGTT against Lrrc52,inactive: 0.0804
6,GCUACUUAUCUGUUGGAAUTT against Nlrp4f,inactive: 0.755
7,GGGUUAAACCACAUAUCCATT against Spata9,inactive: -1.06
8,GGAAAAUGAGCUGAGGAAATT against Fmnl2,inactive: -0.184
9,GGAUAGACACUAGGAUCCUTT against Pdcd1lg2,inactive: 0.721
10,GGUUGAUGUGCUACAAGUCTT against Arhgef38,inactive: 1.76
11,GGAACGUGGAUCUUUUUAUTT against Wiz,active: 2.42
12,GGCAGCAGUGAAGAAAGUATT against Olfr131,inactive: -1.97
13,GGGUGAAAUAUUCUAUUCATT against Zfp711,inactive: 1.72
14,CGCGGUAAAUACAAGGAGGTT against Klc4,inactive: 0.119
15,GCUAUAAUUUGACAGUUAGTT against Lrba,inactive: 0.0367
16,GGAAAUAAGAAUGUAGUGATT against Ahcyl1,inactive: -1.65
17,GCAGUUGAUGAUAAUGUGATT against Pot1b,inactive: -0.0269
18,GGGUUGUUUAAAAGGCCUUTT against Tmed2,inactive: 1.12
19,GGAAAGUUACAACAGAUAATT against Pkn2,inactive: 0.215
20,CCACCUUCUAUCAGCAAAUTT against 4930433I11Rik,inactive: -0.863
21,GCUGAAGAAGUGCUCUUCUTT against Rarres2,inactive: -0.78
22,GGACUAGCAAGCUCUUCAGTT against Fancd2,inactive: -0.578
23,GGAGACAAUGGACAAGAAGTT against Dnal4,inactive: 0.272

row,Sequence,z-score
1,CCACGAGGAGCUCAUUUUCTT against Dhfr,inactive: 0.385
2,GGUCAUGCUCAUCUCCUCCTT against Nsmf,inactive: 0.438
3,GGUUUGUCGAAUUGUUGUATT against Ostn,inactive: 0.148
4,GCUGUACACAGUGAGGAAGTT against Gcat,active: 5.42
5,GGACAUACAAAUCAGGUGGTT against C2cd2,inactive: -0.934
6,GUUAGGUGACUACACUACATT against Zfp644,inactive: -0.8
7,CCAGGAAUCUGAGAUGAUGTT against Fam174c,inactive: -1.02
8,GCGGCAGAUCUUCGAUUUCTT against Nkain1,inactive: 0.168
9,GGAAGUAAGAGACUGUGAGTT against Nt5c3b,inactive: 0.587
10,GGAGAUCCUAGGCUUGAACTT against Vsx2,inactive: 0.279
11,GCUCUACUGCUUCUUAGUCTT against Olfr965,active: -2.4
12,GGGUGACAUUGUCUAUAUCTT against Sorbs3,inactive: 0.171
13,GCAUAACAAGCAACUUAAGTT against Bms1,inactive: 1.05
14,GGACCUCAAAGACAGAGAUTT against Manf,inactive: -0.845
15,CCCGUUCGUGCAUGAGUUATT against Lpcat4,inactive: 0.532
16,GGAAGUAGAUUAGAUGGUATT against Akt3,inactive: 0.52
17,GGUCAGAAAUUCUAAGUUGTT against Gpatch2,inactive: 1.09
18,GGUGAAUCUAUUUACCUGCTT against Fam71d,inactive: 0.317
19,GGUGGAAUCUCCUGAGAGUTT against Smarcd2,inactive: -0.521
20,CCUCACCUAUGGCUAUGUCTT against Itga5,inactive: -0.926
21,UUCCAAUCCACAUAUGUUUTT against Tusc1,inactive: 0.495
22,GGAAAAACAUGUACAAAGATT against Xdh,inactive: -0.6
23,GCCUUUUAAUAGAUGUCAUTT against Vta1,inactive: -0.201

row,Sequence,z-score
1,CCAUGUGACAGCAUUGUUGTT against Axin1,inactive: 0.754
2,GGGCUUUUAUGUUUAACUUTT against Itpr3,inactive: 0.927
3,GCUGGCUCUAAUACCCAUCTT against Mfsd3,inactive: -0.332
4,GGGUUUUGCAUUACACAAGTT against Notch3,inactive: 1.04
5,GGCAAGAAGUCUGACAACATT against Gng4,inactive: -0.587
6,GGCAAGAUCAAAGAGAAGATT against Psmc3ip,inactive: 0.0145
7,GGAGACUCUACUAAUCAUCTT against Pigh,inactive: -0.157
8,GUCUAGCACAUUCUUUGGCTT against Olfr1107,inactive: -1.27
9,GGUCAGAUUCGGAAACCAGTT against Ccdc59,inactive: 0.173
10,GGGCAAUUUCAAACUAUUATT against Myf5,inactive: 1.48
11,GCCUGUAGUCAGAUAUUUCTT against Hdgf,inactive: -0.109
12,CGGAGUUGAGCCAGAAAAATT against Fbxo31,inactive: -0.777
13,CUCUGGUUCCUAUUAGUAGTT against Vmn1r93,inactive: 0.272
14,GGGCCAAAUAGCUAUGCAGTT against Aldoc,inactive: -0.309
15,GGUGUGGAUGUGGUUUUAUTT against Atp5l,inactive: 0.731
16,GGGCAUUGUCAUGGAGAAUTT against Clstn3,inactive: -0.455
17,CGCAUGUGGAAAUGUAACATT against Kbtbd4,inactive: 0.31
18,CGGGUGAUGUCAAGUUACUTT against Amy1,inactive: -0.335
19,GGCAGAGGCCUUGUGUUUATT against Piwil2,inactive: 1.86
20,GGUGAAUGUGUGGAUUAUCTT against Itih2,inactive: -0.684
21,GCCCACACUUGCUAAUGAATT against Ppp1r26,inactive: 0.468
22,CCGAAAAGUGUGGCGAGAATT against Arid3c,inactive: -0.285

# A portion from the list above, for reference:
row,Sequence,z-score
9,GGUCAGAUUCGGAAACCAGTT against Ccdc59,inactive: 0.173
10,GGGCAAUUUCAAACUAUUATT against Myf5,inactive: 1.48
11,GCCUGUAGUCAGAUAUUUCTT against Hdgf,inactive: -0.109
12,CGGAGUUGAGCCAGAAAAATT against Fbxo31,inactive: -0.777
13,CUCUGGUUCCUAUUAGUAGTT against Vmn1r93,inactive: 0.272
14,GGGCCAAAUAGCUAUGCAGTT against Aldoc,inactive: -0.309
15,GGUGUGGAUGUGGUUUUAUTT against Atp5l,inactive: 0.731
16,GGGCAUUGUCAUGGAGAAUTT against Clstn3,inactive: -0.455
17,CGCAUGUGGAAAUGUAACATT against Kbtbd4,inactive: 0.31
18,CGGGUGAUGUCAAGUUACUTT against Amy1,inactive: -0.335
19,GGCAGAGGCCUUGUGUUUATT against Piwil2,inactive: 1.86
20,GGUGAAUGUGUGGAUUAUCTT against Itih2,inactive: -0.684
21,GCCCACACUUGCUAAUGAATT against Ppp1r26,inactive: 0.468
22,CCGAAAAGUGUGGCGAGAATT against Arid3c,inactive: -0.285
